{"sequences": {"note": "Chains of the proteins cited; added tags and fusions are not shown. Lines headed by an entry give the natural chain unless they say otherwise; changes in a name come on top.", "UniProt Q9BRR0": "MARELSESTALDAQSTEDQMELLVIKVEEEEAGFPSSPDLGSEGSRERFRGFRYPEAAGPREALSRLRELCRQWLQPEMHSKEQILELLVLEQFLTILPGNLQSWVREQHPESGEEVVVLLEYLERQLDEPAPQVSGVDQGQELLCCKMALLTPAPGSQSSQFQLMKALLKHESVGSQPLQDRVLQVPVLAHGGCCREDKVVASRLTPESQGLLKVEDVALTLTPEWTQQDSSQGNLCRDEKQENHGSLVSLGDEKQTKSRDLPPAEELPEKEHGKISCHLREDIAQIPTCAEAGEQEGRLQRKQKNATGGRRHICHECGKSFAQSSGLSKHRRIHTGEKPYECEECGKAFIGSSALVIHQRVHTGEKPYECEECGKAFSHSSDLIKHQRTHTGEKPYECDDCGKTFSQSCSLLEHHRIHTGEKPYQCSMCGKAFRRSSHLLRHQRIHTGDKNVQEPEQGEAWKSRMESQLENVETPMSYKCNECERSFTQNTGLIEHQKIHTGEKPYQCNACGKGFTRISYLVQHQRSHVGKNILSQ"}, "source": "patent US20070298445", "about": "“Cancer Therapeutic” (published 2007)", "key": {"[1]": {"target": "ZNF306 (UniProt Q9BRR0)", "assay": "binding assay", "conditions": "ChIP with anti-ZNF306, primers flanking the motif; protein in cells; protein details: expression plasmid or cDNA in colon cancer cells"}, "[2]": {"target": "ZNF306 (UniProt Q9BRR0)", "assay": "EMSA", "conditions": "10 ug nuclear extract, 0.6 ug poly dI/dC; supershifted by anti-ZNF306; only core site printed; protein in an extract"}}, "note": "At least one result comes from cells or an extract, where the contact may be indirect. For some assays here: For at least one entry, the source does not settle the construct or the ends of the probe.", "data": [{"sequence": "TGAGGGG (double strand) [integrin beta4 intron 1 wt probe]", "values": [{"measurement": "binding result", "setting": "[1]", "value": "binds"}, {"measurement": "binding result", "setting": "[2]", "value": "binds"}]}]}
